Among the data in ChEMBL document CHEMBL4303122, “Identification of potential treatments for COVID-19 through artificial intelligence-enabled phenomic analysis of human cells infected with SARS-CoV-2” (2020) are Hit score values, retold here.

Over roughly 1,600 compounds, “Hit score” has its median near 0.13; the highest 2% begin near 0.46. The list shows a part of the results.

In this experiment the test system is SARS-CoV-2. Briefly: Antiviral activity against SARS-CoV-2 (USA-WA1/2020 strain) measured by imaging in HRCE cells at MOI 0.4 after 96 hrs (reported as hit score from 0-1 for on-disease vs off-disease activity: scores >0.6 considered hits). It counts as functional, Homo sapiens.
Turning to `CC(C)(C)NCC(O)COc1cccc2c1CCC(=O)N2` (centres undefined) [CARTEOLOL], the Hit score is listed as 0.1646.
In the case of `N[C@@H]1[C@H]2CN(c3nc4c(cc3F)c(=O)c(C(=O)O)cn4-c3ccc(F)cc3F)C[C@@H]12` [TROVAFLOXACIN] it was 0.134.
To `CC(C)(C(=O)O)c1ccc(C(O)CCCN2CCC(C(O)(c3ccccc3)c3ccccc3)CC2)cc1` (centres undefined) [FEXOFENADINE] belongs 0.1118; to `COc1ccc([C@@H]2CC(=O)c3c(O)cc(O[C@@H]4O[C@H](CO[C@@H]5O[C@@H](C)[C@H](O)[C@@H](O)[C@H]5O)[C@@H](O)[C@H](O)[C@H]4O)cc3O2)cc1O` [HESPERIDIN], 0.0964.
Regarding `CC#CC(=O)N1CCC[C@H]1c1nc(-c2ccc(C(=O)Nc3ccccn3)cc2)c2c(N)nccn12` [ACALABRUTINIB], the Hit score worked out at 0.1279.
Consider `O=C[C@H](O)[C@@H](O)[C@H](O)CO` [XYLOSE], for which the Hit score was found to be 0.1093.
To `CO[C@H]1C[C@@H]2CC[C@@H](C)[C@@](O)(O2)C(=O)C(=O)N2CCCC[C@H]2C(=O)O[C@H]([C@H](C)C[C@@H]2CC[C@@H](OC(=O)C(C)(CO)CO)[C@H](OC)C2)CC(=O)[C@H](C)/C=C(\C)[C@@H](O)[C@@H](OC)C(=O)[C@H](C)C[C@H](C)/C=C/C=C/C=C/1C` [TEMSIROLIMUS] belongs 0.4599.
`C=CC[C@]1(O)CC[C@H]2[C@@H]3CCC4=CC(=O)CCC4=C3C=C[C@@]21C` [ALTRENOGEST]: the Hit score came to 0.04669.
In the case of `NS(=O)(=O)c1cc(C(=O)O)cc(N2CCCC2)c1Oc1ccccc1` [PIRETANIDE] it was 0.1486; in that of `CN(C)CCCN1c2ccccc2Sc2ccccc21` [PROMAZINE], 0.07876; in that of `O=C(OCCO)c1ccccc1O`, 0.157.
To `Cc1cc(C(C)(C)C)c(O)c(C)c1CC1=NCCN1` [OXYMETAZOLINE] belongs 0.2228; to `CC(C)(C)C(=O)Oc1ccc(S(=O)(=O)Nc2ccccc2C(=O)NCC(=O)O)cc1`, 0.1753.
`CC(C(=O)O)c1ccc2c(c1)Cc1cccnc1O2` (centres undefined) [PRANOPROFEN] had a Hit score of 0.2215.
As to `C[C@H]1COc2c(C3(N)CC3)c(F)cc3c(=O)c(C(=O)O)cn1c23` [PAZUFLOXACIN], the Hit score is given as 0.1099.
With `OC[C@H]1NC[C@H](O)[C@@H](O)[C@H]1O`, the Hit score was 0.1151.
To `C[C@@]12CCc3occc3[C@H]1CC[C@@]13C[C@@H](CC[C@H]12)[C@@](O)(CO)C3` [CAFESTOL] belongs 0.168; to `COC(=O)C1=C(C)NC(C)=C(C(=O)OCCN2CCN(C(c3ccccc3)c3ccccc3)CC2)C1c1cccc([N+](=O)[O-])c1` (centres undefined) [MANIDIPINE 6300], 0.142; to `COC(c1ccccc1)(c1ccccc1)[C@H](Oc1nc(C)cc(C)n1)C(=O)O` [AMBRISENTAN], 0.06687.
In the case of `O=C(NO)c1ccc(O)c(O)c1` it was 0.1979; in that of `Cc1ccccc1-c1cc(N2CCN(C)CC2)ncc1N(C)C(=O)C(C)(C)c1cc(C(F)(F)F)cc(C(F)(F)F)c1` [NETUPITANT], 0.1649; in that of `NCCNCCNCCNCCN`, 0.008276.
In the case of `CC(C)OC(=O)[C@H](C)N[P@](=O)(OC[C@H]1O[C@@H](n2ccc(=O)[nH]c2=O)[C@](C)(F)[C@@H]1O)Oc1ccccc1` [SOFOSBUVIR] it was 0.2045; in that of `CC(C)CN(C[C@@H](O)[C@H](Cc1ccccc1)NC(=O)O[C@H]1CO[C@H]2OCC[C@H]21)S(=O)(=O)c1ccc(N)cc1`, 0.38.
In turn, `Oc1cccc2cccnc12` [OXYQUINOLINE] gave a Hit score of 0.1471.
To `Cc1cc2c(cc1S(N)(=O)=O)S(=O)(=O)CCC2` belongs 0.2902; to `CC(C)c1ccc2oc3nc(N)c(C(=O)O)cc3c(=O)c2c1` [AMLEXANOX], 0.03856.
To `COC(=O)Nc1nc2cc(C(=O)c3ccccc3)ccc2[nH]1` [MEBENDAZOLE] belongs 0.2334; to `CCOC(=O)[C@H](CCc1ccccc1)N[C@@H](C)C(=O)N1Cc2ccccc2C[C@H]1C(=O)O`, 0.1.
`C#C[C@]1(O)CC[C@H]2[C@@H]3CCc4cc(OC5CCCC5)ccc4[C@H]3CC[C@@]21C` [QUINESTROL] had a Hit score of 0.3887.
In the case of `Cc1cn([C@H]2O[C@@H](CO)[C@H](O)[C@H]2F)c(=O)[nH]c1=O` [CLEVUDINE] it was 0.0509; in that of `Cc1oncc1C(=O)Nc1ccc(C(F)(F)F)cc1` [LEFLUNOMIDE], 0.04922.
In the case of `COc1ccc(C(Cl)=C(c2ccc(OC)cc2)c2ccc(OC)cc2)cc1` [CHLOROTRIANISENE] it was 0.1443.
In the case of `CC1CC(OC(=O)C(O)c2ccccc2)CC(C)(C)C1` (centres undefined) [CYCLANDELATE] it was 0.1398; in that of `CC(C)(C)C(=O)OCOC(=O)[C@@H]1N2C(=O)[C@@H](/N=C/N3CCCCCC3)[C@H]2SC1(C)C` [AMDINOCILLIN PIVOXIL], 0.008594; in that of `O=c1ccc2ccc(OCCCCN3CCN(c4cccc5sccc45)CC3)cc2[nH]1` [BREXPIPRAZOLE], 0.1154.
In turn, `CN(C)/N=N/c1[nH]cnc1C(N)=O` [DACARBAZINE] gave a Hit score of 0.157.
In the case of `CC(=O)O[C@H]1C[C@@H]2CC[C@@H]3[C@H](CC[C@@]4(C)[C@H]3C[C@H]([N+]3(C)CCCCC3)[C@@H]4OC(C)=O)[C@@]2(C)C[C@@H]1N1CCCCC1` [VECURONIUM], the Hit score came to 0.1052.
The compound `CCN(CC)CCCN(c1ccccc1)C1Cc2ccccc2C1.Cl` [APRINDINE HYDROCHLORIDE] had a Hit score of 0.2277.
In the case of `Cn1c(NCCN(CCO)CCCc2ccc([N+](=O)[O-])cc2)cc(=O)n(C)c1=O` [NIFEKALANT] it was 0.204; in that of `CC(C)Cc1ccc(C(C)C(=O)NCCO)cc1` (centres undefined) [MABUPROFEN], 0.24.
`Cc1ccc(Nc2c(F)cccc2Cl)c(CC(=O)O)c1` [LUMIRACOXIB]: the Hit score is 0.03253.
In the case of `CN1CCc2c(c3ccccc3n2Cc2ccccc2)C1` [MEBHYDROLIN] it was 0.1177.
To `CCC1C(C)=NN=C(c2ccc(OC)c(OC)c2)c2cc(OC)c(OC)cc21` (centres undefined) [TOFISOPAM] belongs 0.2037.
